The test relates to C3AKF1 mice, osteogenic sarcoma HE10734 s.c., tumor weight T/C. The experiment in a line: NCI In Vivo Anticancer Drug Screen. Data for tumor model Osteogenic Sarcoma HE 10734 (subcutaneous) in C3AKF1 (CHKRF1) mice. The settings on record: T/C endpoint: mean tumor weight, schedule: Q01DX010 (ip), higher T/C = larger tumour. The procedure: The antitumor activity of compounds was measured in mice bearing transplantable tumors. Survival or tumor size were measured and the results are expressed as the measurement made in the treated group (T) divided by the measurement made in the vehicle treated control group (C). The tumor model used in this assay is Osteogenic Sarcoma HE 10734 (subcutaneous) in C3AKF1 (CHKRF1) mice

[1] abbreviates: dose: 5.0 mg/kg/injection, vehicle: saline, evaluated on day 20.
[2] abbreviates: dose: 10.0 mg/kg/injection, vehicle: saline, evaluated on day 20.
The mark [3] stands for this setting: dose: 20.0 mg/kg/injection, vehicle: saline, evaluated on day 20.
Setting [4] is: dose: 20.0 mg/kg/injection, vehicle: saline.
The mark [5] stands for this setting: dose: 30.0 mg/kg/injection, vehicle: saline.
Where [6] appears, read: dose: 30.0 mg/kg/injection, vehicle: saline, evaluated on day 20.

The list shows only some results of the screen, not a fair sample: its compounds were picked by chemical class. Other doses and runs of a compound may be missing. T/C is the treated group as % of the vehicle group. Schedule codes are those of the source, taken here to give the interval after Q, in days (D) or hours (H), and the number of doses after X. Some T/C values are followed by the survivors on the day toxicity was checked; without a count or a note in brackets, all were alive then. Some entries hold several experiments; the values are given in rising order. Some T/C values are marked as having no survivor count here; that says nothing about deaths at the dose. Some entries give survivors of the animals treated and no T/C: the source files T/C as zero there, which appears to mark a toxic dose or a test without result, not a measured value. Counts of survivors are from the toxicity check, whose day is not always given; animals may have died later.

Consider `BrCc1cccc(CBr)c1`, for which the T/C runs as follows: (dose: 2.5 mg/kg/injection, vehicle: saline, evaluated on day 20) 120 % of control; under setting [1], 67 % of control; under setting [2], 43 % of control; under setting [3], 104 % of control [5 of 6 alive]. The survivor count is, setting by setting: under setting [4], 0 of 6; under setting [5], 0 of 6; (dose: 45.0 mg/kg/injection, vehicle: saline) 0 of 6; (dose: 70.0 mg/kg/injection, vehicle: saline) 0 of 6.
With `NC(Cc1ccc(N(CCF)CCCl)cc1)C(=O)O` (stereo not given), the T/C (dose: 13.0 mg/kg/injection, vehicle: saline, evaluated on day 20) was 75 % of control; the T/C under setting [3] was 79 % of control; the T/C under setting [6] was 80 % of control; the T/C (dose: 45.0 mg/kg/injection, vehicle: saline, evaluated on day 20) was 31 % of control.
Regarding `O[C@H](CNCCCl)[C@@H](O)CNCCCl`, the T/C (dose: 3.75 mg/kg/injection, vehicle: saline, evaluated on day 20) was 49 and 140 % of control; the T/C (dose: 7.5 mg/kg/injection, vehicle: saline, evaluated on day 20) was 64 and 86 % of control [5 of 6 alive]; the T/C (dose: 15.0 mg/kg/injection, vehicle: saline, evaluated on day 20) is 16 [4 of 6 alive] and 48 % of control; the T/C under setting [6] was 39 % of control [7 of 8 alive]. Also, the survivor count runs as follows: (dose: 30.0 mg/kg/injection, vehicle: carboxymethylcellulose (CMC)) 0 of 6; under setting [5], 1 of 6; (dose: 45.0 mg/kg/injection, vehicle: carboxymethylcellulose (CMC)) 0 of 6; (dose: 65.0 mg/kg/injection, vehicle: carboxymethylcellulose (CMC)) 0 of 6; (dose: 95.0 mg/kg/injection, vehicle: carboxymethylcellulose (CMC)) 0 of 6.
Regarding `O[C@H](CNCCCl)[C@H](O)CNCCCl`, the T/C (dose: 4.5 mg/kg/injection, vehicle: saline, evaluated on day 20) was 77 % of control; the T/C (dose: 9.0 mg/kg/injection, vehicle: saline, evaluated on day 20) is 78 % of control; the T/C (dose: 18.0 mg/kg/injection, vehicle: saline, evaluated on day 20) is 42 % of control. The survivor count (dose: 36.0 mg/kg/injection, vehicle: saline) was 3 of 6.
On to `O[C@H](CNCCBr)[C@@H](O)CNCCBr`, for which the T/C (dose: 1.0 mg/kg/injection, vehicle: carboxymethylcellulose (CMC), evaluated on day 20) is 62 % of control and the T/C (dose: 2.0 mg/kg/injection, vehicle: carboxymethylcellulose (CMC), evaluated on day 20) was 87 % of control. Moreover, the survivor count runs as follows: (dose: 4.0 mg/kg/injection, vehicle: carboxymethylcellulose (CMC)) 1 of 7; (dose: 8.0 mg/kg/injection, vehicle: carboxymethylcellulose (CMC)) 0 of 7.
`CCOC(=O)COc1ccc(N(CCCl)CCCl)cc1`: the T/C by setting is: under setting [1], 74 % of control; under setting [2], 17 % of control. In addition, the survivor count under setting [4] was 0 of 7 and the survivor count (dose: 40.0 mg/kg/injection, vehicle: saline) is 0 of 7.
`N/C(=N\[N+](=O)[O-])N(CCO[N+](=O)[O-])N=O`: the T/C (dose: 30.0 mg/kg/injection, vehicle: carboxymethylcellulose (CMC), evaluation day not shown) is 123 % of control [survivor count not shown] and the T/C (dose: 45.0 mg/kg/injection, vehicle: carboxymethylcellulose (CMC), evaluation day not shown) was 122 % of control [survivor count not shown].

Source of the values: PubChem BioAssay AID310 (DTP/NCI, 2004).
